No constants are given. Whether binding was seen depends on the method and setting. Some entries that bind do so weakly or less than the wild type. Tags and fused reporters may be left off the sequences shown. Values belong to the binder of their own block, whether it stands above or below them.
Biological target: human insulin receptor on human IM-9 cells (human) (UniProt P06213)
Test: IM-9 insulin receptor competition assay

The chains behind the UniProt entries cited, without tags or fusion partners. Residues count along the entry.
UniProt P06213, residues 28-1382: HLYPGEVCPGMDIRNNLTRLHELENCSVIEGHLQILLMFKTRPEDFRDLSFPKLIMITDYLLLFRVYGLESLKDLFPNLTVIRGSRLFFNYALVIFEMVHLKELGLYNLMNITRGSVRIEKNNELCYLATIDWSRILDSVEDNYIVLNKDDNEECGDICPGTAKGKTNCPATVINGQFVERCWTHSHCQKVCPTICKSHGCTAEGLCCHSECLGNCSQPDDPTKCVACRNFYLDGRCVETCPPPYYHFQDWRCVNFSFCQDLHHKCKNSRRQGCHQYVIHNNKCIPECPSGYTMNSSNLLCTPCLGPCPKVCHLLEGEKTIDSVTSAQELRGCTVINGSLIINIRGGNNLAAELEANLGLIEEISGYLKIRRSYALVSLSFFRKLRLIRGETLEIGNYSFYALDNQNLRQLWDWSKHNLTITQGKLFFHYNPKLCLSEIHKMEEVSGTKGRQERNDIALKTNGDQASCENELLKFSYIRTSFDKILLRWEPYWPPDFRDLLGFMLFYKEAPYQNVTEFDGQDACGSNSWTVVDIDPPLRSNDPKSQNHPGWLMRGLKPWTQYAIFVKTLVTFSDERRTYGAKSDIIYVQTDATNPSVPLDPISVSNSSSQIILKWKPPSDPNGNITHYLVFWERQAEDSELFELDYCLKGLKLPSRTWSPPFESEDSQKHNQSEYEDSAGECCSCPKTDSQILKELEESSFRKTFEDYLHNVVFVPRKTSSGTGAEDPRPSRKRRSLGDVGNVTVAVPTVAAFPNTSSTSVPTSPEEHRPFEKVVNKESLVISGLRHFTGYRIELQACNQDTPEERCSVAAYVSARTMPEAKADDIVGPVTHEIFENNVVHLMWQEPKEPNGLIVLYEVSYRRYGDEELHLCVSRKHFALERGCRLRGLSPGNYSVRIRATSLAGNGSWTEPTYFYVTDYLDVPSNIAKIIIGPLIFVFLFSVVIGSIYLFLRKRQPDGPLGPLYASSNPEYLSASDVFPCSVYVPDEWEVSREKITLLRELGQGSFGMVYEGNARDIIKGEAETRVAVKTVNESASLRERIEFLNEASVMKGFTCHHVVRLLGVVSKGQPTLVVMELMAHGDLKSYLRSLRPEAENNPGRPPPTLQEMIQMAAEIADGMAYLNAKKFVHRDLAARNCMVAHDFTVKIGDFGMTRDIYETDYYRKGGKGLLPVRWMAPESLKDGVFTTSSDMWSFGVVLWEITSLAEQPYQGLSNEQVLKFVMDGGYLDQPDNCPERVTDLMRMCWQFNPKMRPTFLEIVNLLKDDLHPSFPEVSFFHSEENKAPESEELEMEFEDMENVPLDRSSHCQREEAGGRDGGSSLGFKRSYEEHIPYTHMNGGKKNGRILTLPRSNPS

- binding: binds
B1: insulin-Fc fusion protein of SEQ ID NO: 47 (insulin polypeptide SEQ ID NO: 16, linker SEQ ID NO: 25, canine IgGB Fc fragment with cNg-S) (Fc fusion)
chain: FVNQHLCGSDLVEALALVCGERGFFYTDPTGGGPRRGIVEQCCHSICSLYQLENYCNGGGGAGGGGDCPKCPAPEMLGGPSVFIFPPKPKDTLLIARTPEVTCVVVDLDPEDPEVQISWFVDGKQMQTAKTQPREEQFSGTYRVVSVLPIGHQDWLKGKQFTCKVNNKALPSPIERTISKARGQAHQPSVYVLPPSREELSKNTVSLTCLIKDFFPPDIDVEWQSNGQQEPESKYRTTPPQLDEDGSYFLYSKLSVDKSRWQRGDTFICAVMHEALHNHYTQESLSHSPG
notes: Non-glycosylated homodimer made in HEK293 cells; also called cNg-NB139-S

- binding: binds
B2: insulin-Fc fusion protein of SEQ ID NO: 51 (insulin polypeptide SEQ ID NO: 16, linker SEQ ID NO: 25, canine IgGB Fc fragment with des hinge D and cNg-K, i.e. … (Fc fusion)
chain: FVNQHLCGSDLVEALALVCGERGFFYTDPTGGGPRRGIVEQCCHSICSLYQLENYCNGGGGAGGGGCPKCPAPEMLGGPSVFIFPPKPKDTLLIARTPEVTCVVVDLDPEDPEVQISWFVDGKQMQTAKTQPREEQFKGTYRVVSVLPIGHQDWLKGKQFTCKVNNKALPSPIERTISKARGQAHQPSVYVLPPSREELSKNTVSLTCLIKDFFPPDIDVEWQSNGQQEPESKYRTTPPQLDEDGSYFLYSKLSVDKSRWQRGDTFICAVMHEALHNHYTQESLSHSPG
notes: Non-glycosylated homodimer made in HEK293 cells; also called cNg-NB138-K
